Experimental data reported in the supplement of paper PMC8728848.
This is one part of the list.

What was measured:
Test in all cases: glycan array binding signal (z-score within array); higher = stronger binding
Settings in all cases: glycan notation: IUPAC condensed, linker removed
[1] = target: GlcA(b1-3)Gal
Summary of the method: (§1)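 Glycan array data came from 3228 arrays in the Consortium for Functional Glycomics database, and only arrays with an available protein sequence were kept. Glycan names were put into IUPAC-condensed notation, and columns mapping to the same glycan were averaged. The binding signal is a within-array Z-score, averaged across arrays of one protein sequence run at different concentrations or buffers and across linkers. A negative Z-score can be read as non-binding.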

[2] = target: GlcA(b1-3)GlcNAc
Summary of the method: as §1

[3] = target: GlcA(b1-6)Gal
Summary of the method: as §1

[4] = target: GlcA3S(b1-3)Gal(b1-4)GlcNAc(b1-2)Man
Summary of the method: as §1

[5] = target: GlcA3S(b1-3)Gal(b1-4)GlcNAc(b1-3)Gal(b1-4)Glc
Summary of the method: as §1

[6] = target: GlcNAc(a1-3)Gal(b1-4)GlcNAc
Summary of the method: as §1

[7] = target: GlcNAc(a1-4)Gal(b1-3)GlcNAc
Summary of the method: as §1

[8] = target: GlcNAc(a1-4)Gal(b1-4)GalNAc
Summary of the method: as §1

[9] = target: GlcNAc(a1-4)Gal(b1-4)GlcNAc
Summary of the method: as §1

[10] = target: GlcNAc(a1-4)Gal(b1-4)GlcNAc(b1-3)Gal(b1-4)Glc
Summary of the method: as §1

[11] = target: GlcNAc(a1-4)Gal(b1-4)GlcNAc(b1-3)Gal(b1-4)GlcNAc
Summary of the method: as §1

[12] = target: GlcNAc(a1-4)Gal(b1-4)GlcNAc(b1-3)Gal(b1-4)GlcNAc(b1-3)Gal(b1-4)GlcNAc
Summary of the method: as §1

[13] = target: GlcNAc(a1-4)Gal(b1-4)GlcNAc(b1-3)Gal(b1-4)[Fuc(a1-3)]GlcNAc(b1-3)Gal(b1-4)[Fuc(a1-3)]GlcNAc
Summary of the method: as §1

[14] = target: GlcNAc(a1-6)Gal(b1-4)GlcNAc
Summary of the method: as §1

[15] = target: GlcNAc(b1-2)Gal(b1-3)GalNAc
Summary of the method: as §1

[16] = target: GlcNAc(b1-2)Man(a1-3)[GlcNAc(b1-2)Man(a1-6)]Man(b1-4)GlcNAc(b1-4)GlcNAc
Summary of the method: as §1

[17] = target: GlcNAc(b1-2)Man(a1-3)[GlcNAc(b1-2)Man(a1-6)]Man(b1-4)GlcNAc(b1-4)[Fuc(a1-6)]GlcNAc
Summary of the method: as §1

[18] = target: GlcNAc(b1-2)Man(a1-3)[GlcNAc(b1-4)][GlcNAc(b1-2)Man(a1-6)]Man(b1-4)GlcNAc(b1-4)GlcNAc
Summary of the method: as §1

[19] = target: GlcNAc(b1-2)Man(a1-3)[GlcNAc(b1-4)][GlcNAc(b1-2)Man(a1-6)]Man(b1-4)GlcNAc(b1-4)[Fuc(a1-6)]GlcNAc
Summary of the method: as §1

[20] = target: GlcNAc(b1-2)[GlcNAc(b1-4)]Man(a1-3)[GlcNAc(b1-2)Man(a1-6)]Man(b1-4)GlcNAc(b1-4)GlcNAc
Summary of the method: as §1

[21] = target: GlcNAc(b1-2)[GlcNAc(b1-4)]Man(a1-3)[GlcNAc(b1-4)][GlcNAc(b1-2)Man(a1-6)]Man(b1-4)GlcNAc(b1-4)GlcNAc
Summary of the method: as §1

[22] = target: GlcNAc(b1-2)[GlcNAc(b1-4)]Man(a1-3)[GlcNAc(b1-4)][GlcNAc(b1-2)[GlcNAc(b1-6)]Man(a1-6)]Man(b1-4)GlcNAc(b1-4)GlcNAc
Summary of the method: as §1

[23] = target: GlcNAc(b1-2)[GlcNAc(b1-4)]Man(a1-3)[GlcNAc(b1-4)][GlcNAc(b1-2)[GlcNAc(b1-6)]Man(a1-6)]Man(b1-4)GlcNAc(b1-4)[Fuc(a1-6)]GlcNAc
Summary of the method: as §1

[24] = target: GlcNAc(b1-2)[GlcNAc(b1-6)]Man(a1-6)[GlcNAc(b1-2)Man(a1-3)]Man(b1-4)GlcNAc(b1-4)GlcNAc
Summary of the method: as §1

[25] = target: GlcNAc(b1-2)[GlcNAc(b1-6)]Man(a1-6)[GlcNAc(b1-2)Man(a1-3)]Man(b1-4)GlcNAc(b1-4)[Fuc(a1-6)]GlcNAc
Summary of the method: as §1

[26] = target: GlcNAc(b1-2)[GlcNAc(b1-6)]Man(a1-6)[GlcNAc(b1-4)][GlcNAc(b1-2)Man(a1-3)]Man(b1-4)GlcNAc(b1-4)GlcNAc
Summary of the method: as §1

[27] = target: GlcNAc(b1-3)Fuc
Summary of the method: as §1

[28] = target: GlcNAc(b1-3)Gal
Summary of the method: as §1

[29] = target: GlcNAc(b1-3)Gal(b1-3)GalNAc
Summary of the method: as §1

[30] = target: GlcNAc(b1-3)Gal(b1-4)Glc
Summary of the method: as §1

[31] = target: GlcNAc(b1-3)Gal(b1-4)GlcNAc
Summary of the method: as §1

[32] = target: GlcNAc(b1-3)Gal(b1-4)GlcNAc(b1-2)Man(a1-3)[GlcNAc(b1-3)Gal(b1-4)GlcNAc(b1-2)Man(a1-6)]Man(b1-4)GlcNAc(b1-4)GlcNAc
Summary of the method: as §1

[33] = target: GlcNAc(b1-3)Gal(b1-4)GlcNAc(b1-2)Man(a1-3)[GlcNAc(b1-3)Gal(b1-4)GlcNAc(b1-2)Man(a1-6)]Man(b1-4)GlcNAc(b1-4)[Fuc(a1-6)]GlcNAc
Summary of the method: as §1

[34] = target: GlcNAc(b1-3)Gal(b1-4)GlcNAc(b1-2)[GlcNAc(b1-3)Gal(b1-4)GlcNAc(b1-6)]Man(a1-6)[GlcNAc(b1-3)Gal(b1-4)GlcNAc(b1-2)Man(a1-3)]Man(b1-4)GlcNAc(b1-4)GlcNAc
Summary of the method: as §1

[35] = target: GlcNAc(b1-3)Gal(b1-4)GlcNAc(b1-3)Gal(b1-4)GlcNAc
Summary of the method: as §1

[36] = target: GlcNAc(b1-3)Gal(b1-4)GlcNAc(b1-3)Gal(b1-4)GlcNAc(b1-2)Man(a1-3)[GlcNAc(b1-3)Gal(b1-4)GlcNAc(b1-3)Gal(b1-4)GlcNAc(b1-2)Man(a1-6)]Man(b1-4)GlcNAc(b1-4)GlcNAc
Summary of the method: as §1

[37] = target: GlcNAc(b1-3)Gal(b1-4)GlcNAc(b1-3)Gal(b1-4)GlcNAc(b1-2)Man(a1-3)[GlcNAc(b1-3)Gal(b1-4)GlcNAc(b1-3)Gal(b1-4)GlcNAc(b1-2)Man(a1-6)]Man(b1-4)GlcNAc(b1-4)[Fuc(a1-6)]GlcNAc
Summary of the method: as §1

B1: Epf (Streptococcus pyogenes) (protein)
chain: GDHGPEFNGVMVVKAAEAEELPDDLMNFKGTWEVSADGSSGRFFSKGATDSYVFHLIPAKDVKKPGWREHNEVKDSYIKIDKQSIAARYKTSTTAPYSVAFKVNTKSLIKDHDYKITFEQGQIASGITVDYRIGSAFNKTTDDSFKISDESKYASNVKIEGEEQGFKQREQGDKTISFRTLKEGPMSLVLLSKVEKKPQGDLDVEFKNLKIIDVTNPSQLDKGVAYVGNKNVQLTLKSDDGRTNFEGDEISLFNSRGELLQTVTVTKDQQNPISITLSEDQAKSLKNKEKLKVSIKQKQSKKTSKDFFFEVGIDPKVEAKQKEKLLELDKVKKQIEDSINGDAWLPEKPVDLQGDHGLSAWSHPQFEK
Q: For B1, which “glycan array binding signal (z-score)” value [1] is on record?
A: -0.114

Q: What about the “glycan array binding signal (z-score)” value [2] of the same binder?
A: -0.509

Q: And the “glycan array binding signal (z-score)” value [3]?
A: 0.072

Q: And the “glycan array binding signal (z-score)” value [4]?
A: -0.251

Q: What about the “glycan array binding signal (z-score)” value [5] of the same binder?
A: -1.41

Q: And the “glycan array binding signal (z-score)” value [6]?
A: 0.808

Q: What about the “glycan array binding signal (z-score)” value [7] of the same binder?
A: -0.513

Q: What about the “glycan array binding signal (z-score)” value [8] of the same binder?
A: 0.374

Q: What about the “glycan array binding signal (z-score)” value [9] of the same binder?
A: 0.691

Q: And the “glycan array binding signal (z-score)” value [10]?
A: -0.09

Q: And the “glycan array binding signal (z-score)” value [11]?
A: -0.942

Q: And the “glycan array binding signal (z-score)” value [12]?
A: -1.16

Q: What about the “glycan array binding signal (z-score)” value [13] of the same binder?
A: 0.834

Q: And the “glycan array binding signal (z-score)” value [14]?
A: 0.095

Q: What about the “glycan array binding signal (z-score)” value [15] of the same binder?
A: -0.413

Q: What about the “glycan array binding signal (z-score)” value [16] of the same binder?
A: 0.436

Q: And the “glycan array binding signal (z-score)” value [17]?
A: -0.521

Q: What about the “glycan array binding signal (z-score)” value [18] of the same binder?
A: 0.722

Q: And the “glycan array binding signal (z-score)” value [19]?
A: 0.795

Q: What about the “glycan array binding signal (z-score)” value [20] of the same binder?
A: -0.419

Q: And the “glycan array binding signal (z-score)” value [21]?
A: 0.679

Q: What about the “glycan array binding signal (z-score)” value [22] of the same binder?
A: -1.04

Q: What about the “glycan array binding signal (z-score)” value [23] of the same binder?
A: 0.798

Q: What about the “glycan array binding signal (z-score)” value [24] of the same binder?
A: -0.28

Q: What about the “glycan array binding signal (z-score)” value [25] of the same binder?
A: 0.331

Q: And the “glycan array binding signal (z-score)” value [26]?
A: 1.68

Q: What about the “glycan array binding signal (z-score)” value [27] of the same binder?
A: 0.217

Q: And the “glycan array binding signal (z-score)” value [28]?
A: 0.072

Q: What about the “glycan array binding signal (z-score)” value [29] of the same binder?
A: -0.285

Q: What about the “glycan array binding signal (z-score)” value [30] of the same binder?
A: 0.469

Q: And the “glycan array binding signal (z-score)” value [31]?
A: 0.342

Q: And the “glycan array binding signal (z-score)” value [32]?
A: -0.562

Q: And the “glycan array binding signal (z-score)” value [33]?
A: -0.245

Q: And the “glycan array binding signal (z-score)” value [34]?
A: -0.254

Q: What about the “glycan array binding signal (z-score)” value [35] of the same binder?
A: 0.659

Q: And the “glycan array binding signal (z-score)” value [36]?
A: 1.22

Q: And the “glycan array binding signal (z-score)” value [37]?
A: 0.723
